The results in this text go back to PubChem BioAssay AID330 (DTP/NCI, 2004).

In the assay the test system is P388 leukemia ip, CD2F1 mice, survival T/C. Put plainly: NCI In Vivo Anticancer Drug Screen. Data for tumor model P388 Leukemia (intraperitoneal) in CD2F1 (CDF1) mice. The note with it: T/C endpoint: median survival time, higher T/C = longer survival.
The mark [1] stands for this setting: dose: 200.0 mg/kg/injection, schedule: Q01DX009 (ip), vehicle: Klucel (hydroxypropylcellulose) (HPC).
The mark [2] stands for this setting: dose: 240.0 mg/kg/injection, schedule: Q01DX005 (ip), vehicle: saline with Tween-80.
[3] abbreviates: dose: 120.0 mg/kg/injection, schedule: Q01DX005 (ip), vehicle: saline with Tween-80.
Setting [4] is: dose: 50.0 mg/kg/injection, schedule: Q04DX002 (ip), vehicle: saline.
Where [5] appears, read: dose: 200.0 mg/kg/injection, schedule: Q04DX002 (ip), vehicle: saline.
[6] abbreviates: dose: 50.0 mg/kg/injection, schedule: Q01DX009 (ip), vehicle: saline with Tween-80.
[7] abbreviates: dose: 100.0 mg/kg/injection, schedule: Q01DX009 (ip), vehicle: saline with Tween-80.
[8] abbreviates: dose: 200.0 mg/kg/injection, schedule: Q01DX009 (ip), vehicle: saline with Tween-80.
Setting [9] is: dose: 40.0 mg/kg/injection, schedule: Q01DX009 (ip), vehicle: carboxymethylcellulose (CMC).

The list is a part of this screen's results and no random one: it is rich in T/C values a quarter to a half above the control, in often repeated tests (any T/C) and in doses without a T/C. Other doses and runs of a compound stand elsewhere. T/C is the treated group as % of the vehicle group. Some entries give survivors of the animals treated and no T/C: the source holds a T/C of zero for them, seemingly a mark for toxic or unscored doses. Some doses without a T/C left all or most animals alive at the check, yet need not have been tolerated: the source hardly ever lists a survival T/C far under the control, and the zero likely stands for such cases as well. Counts of survivors are from the toxicity check (mostly the fifth day) where no day follows; animals may have died later. Schedules are NCI's codes, read here as Q, the interval in days (D) or hours (H), X, the number of doses. Some entries hold several experiments; the results are listed from low to high. For survival time, this PubChem deposit counts one and a half times the control or more as active, and values a quarter to a half above the control carry no call in these data; other NCI protocols may use other cut-offs.

With `CCCC[n+]1c(/C=C\c2c(OC)cc(OC)cc2OC)ccc2ccccc21`, the T/C (dose: 0.78 mg/kg/injection, schedule: Q01DX009 (ip), vehicle: Klucel (hydroxypropylcellulose) (HPC)) is 125 and 146 % of control. Moreover, the survivor count is, setting by setting: (dose: 1.56 mg/kg/injection, schedule: Q01DX009 (ip), vehicle: Klucel (hydroxypropylcellulose) (HPC)) 0 of 6 and 5 of 6; (dose: 3.12 mg/kg/injection, schedule: Q01DX009 (ip), vehicle: Klucel (hydroxypropylcellulose) (HPC)) 0 of 6 and 2 of 6; (dose: 6.25 mg/kg/injection, schedule: Q01DX009 (ip), vehicle: Klucel (hydroxypropylcellulose) (HPC)) 0 of 6; (dose: 12.5 mg/kg/injection, schedule: Q01DX009 (ip), vehicle: Klucel (hydroxypropylcellulose) (HPC)) 0 of 6; (dose: 25.0 mg/kg/injection, schedule: Q01DX009 (ip), vehicle: Klucel (hydroxypropylcellulose) (HPC)) 0 of 6; (dose: 50.0 mg/kg/injection, schedule: Q01DX009 (ip), vehicle: Klucel (hydroxypropylcellulose) (HPC)) 0 of 6. Further, the survivor count is, setting by setting: (dose: 100.0 mg/kg/injection, schedule: Q01DX009 (ip), vehicle: Klucel (hydroxypropylcellulose) (HPC)) 0 of 6; under setting [1], 0 of 6; (dose: 400.0 mg/kg/injection, schedule: Q01DX009 (ip), vehicle: Klucel (hydroxypropylcellulose) (HPC)) 0 of 6.

As for `CC(NNC(=S)N1CCCC1)c1ccccn1` (centres undefined), the survivor count (dose: 200.0 mg/kg/injection, schedule: Q01DX005 (ip), vehicle: saline with Tween-80) is reported as 1 of 5.

In the case of `CNc1nc2cc(OC)c(OC)cc2c(=O)[nH]1`, the survivor count under setting [2] is 3 of 6.

`C[Si](C)(C)CSC#N`: the survivor count by setting is: (dose: 60.0 mg/kg/injection, schedule: Q01DX005 (ip), vehicle: saline with Tween-80) 0 of 6; under setting [3], 0 of 6; under setting [2], 0 of 6.

On to `CC(=O)OCCN1CCN(CCCN2c3ccccc3Sc3ccc(C(F)(F)F)cc32)CC1`, for which the survivor count by setting is: (dose: 12.5 mg/kg/injection, schedule: Q01DX009 (ip), vehicle: saline) 4 of 6; (dose: 25.0 mg/kg/injection, schedule: Q01DX009 (ip), vehicle: saline) 3 of 6; (dose: 50.0 mg/kg/injection, schedule: Q01DX009 (ip), vehicle: saline) 0 of 6; under setting [4], 5 of 6; (dose: 100.0 mg/kg/injection, schedule: Q04DX002 (ip), vehicle: saline) 4 of 6; under setting [5], 0 of 6. For the same molecule, where the note is “dose: 400.0 mg/kg/injection, schedule: Q04DX002 (ip), vehicle: saline”, the survivor count is recorded as 0 of 6. The T/C runs as follows: (dose: 25.0 mg/kg/injection, schedule: Q04DX002 (ip), vehicle: saline) 127 and 132 % of control; under setting [4], 143 % of control.

Regarding `O=[N+]([O-])C1C2C=CC(C2)C1C(Cl)(Cl)Cl` (centres undefined), the survivor count was 2 of 6 (dose: 1.56 mg/kg/injection, schedule: Q01DX009 (ip), vehicle: saline with Tween-80); 0 of 6 (dose: 3.12 mg/kg/injection, schedule: Q01DX009 (ip), vehicle: saline with Tween-80); 0 of 6 (dose: 6.25 mg/kg/injection, schedule: Q01DX009 (ip), vehicle: saline with Tween-80); 0 of 6 (dose: 12.5 mg/kg/injection, schedule: Q01DX009 (ip), vehicle: saline with Tween-80); 0 of 6 (dose: 25.0 mg/kg/injection, schedule: Q01DX009 (ip), vehicle: saline with Tween-80); 0 of 6 under setting [6]. Also, the survivor count is given as 0 of 6 under setting [7] and 0 of 6 under setting [8].

With `O=C1OC(OCC#CCOC2OC(=O)C(Cl)=C2Cl)C(Cl)=C1Cl` (centres undefined), the survivor count runs as follows: under setting [3], 0 of 6; under setting [2], 0 of 6.

On to `CC1CCCCC12C(C#N)(C#N)C2(C#N)C#N` (centres undefined), for which the survivor count runs as follows: (dose: 50.0 mg/kg/injection, schedule: Q04DX003 (ip), vehicle: Klucel (hydroxypropylcellulose) (HPC)) 3 of 6 and 6 of 6; (dose: 100.0 mg/kg/injection, schedule: Q04DX003 (ip), vehicle: Klucel (hydroxypropylcellulose) (HPC)) 2 of 6; (dose: 200.0 mg/kg/injection, schedule: Q04DX003 (ip), vehicle: Klucel (hydroxypropylcellulose) (HPC)) 0 of 6; (dose: 400.0 mg/kg/injection, schedule: Q04DX003 (ip), vehicle: Klucel (hydroxypropylcellulose) (HPC)) 0 of 6.

Consider `COc1ccc2c(C)c3[n+](cc2c1OC)CCc1cc2c(cc1-3)OCO2`, for which the survivor count was 0 of 5 (dose: 50.0 mg/kg/injection, schedule: Q04DX003 (ip), vehicle: distilled water + Tween-80); 0 of 5 (dose: 100.0 mg/kg/injection, schedule: Q04DX003 (ip), vehicle: distilled water + Tween-80); 0 of 5 (dose: 200.0 mg/kg/injection, schedule: Q04DX003 (ip), vehicle: distilled water + Tween-80); 0 of 5 (dose: 400.0 mg/kg/injection, schedule: Q04DX003 (ip), vehicle: distilled water + Tween-80).

On to `NC1=NC2C(Cl)=CC=CC2S1` (centres undefined), for which the survivor count under setting [1] is on record as 1 of 6.

`C=CC(C)(C)n1cc(C2=C(O)C(=O)C(c3cn(C(C)(C)C=C)c4ccccc34)=C(O)C2=O)c2ccccc21`: the survivor count is reported as 6 of 6 (dose: 2.5 mg/kg/injection, schedule: Q01DX009 (ip), vehicle: carboxymethylcellulose (CMC)); 6 of 6 (dose: 5.0 mg/kg/injection, schedule: Q01DX009 (ip), vehicle: carboxymethylcellulose (CMC)); 6 of 6 (dose: 10.0 mg/kg/injection, schedule: Q01DX009 (ip), vehicle: carboxymethylcellulose (CMC)); 6 of 6 (dose: 20.0 mg/kg/injection, schedule: Q01DX009 (ip), vehicle: carboxymethylcellulose (CMC)); 6 of 6 under setting [9]. Further, the T/C by setting is: under setting [9], 130 % of control; (dose: 60.0 mg/kg/injection, schedule: Q01DX009 (ip), vehicle: Klucel (hydroxypropylcellulose) (HPC)) 133 % of control.

Regarding `O=S(O)O`, the survivor count (dose: 800.0 mg/kg/injection, schedule: Q01DX005 (ip), vehicle: saline) is reported as 0 of 6.

Turning to `[CH3][Sn]([CH3])([Cl])[S]CCN`, the survivor count is recorded as 3 of 6 under setting [6], 0 of 6 under setting [7] and 0 of 6 under setting [8].

As for `CN(C)CCC(CCc1ccccc1)OC(=O)c1ccc([N+](=O)[O-])cc1` (centres undefined), the survivor count under setting [5] is listed as 3 of 6.

As to `CC(C)c1[nH]c2ccccc2c1Cn1ccnc1`, for the setting “dose: 200.0 mg/kg/injection, schedule: Q01DX005 (ip), vehicle: Klucel (hydroxypropylcellulose) (HPC)”, the survivor count is reported as 0 of 5.

For `Cn1cnc2cc3c(cc2c1=O)nc1n3CCCC1`, the survivor count (dose: 400.0 mg/kg/injection, schedule: Q04DX003 (ip), vehicle: saline) was 3 of 6.

On to `CC[N+](C)(CC)C[Si](C)(C)c1ccccc1`, for which the survivor count is, setting by setting: (dose: 100.0 mg/kg/injection, schedule: Q01DX005 (ip), vehicle: saline) 0 of 6; (dose: 200.0 mg/kg/injection, schedule: Q01DX005 (ip), vehicle: saline) 0 of 6.
